From the supplement of paper PMC12823440, “Inhibitors supercharge kinase turnover through native proteolytic circuits” (Nature, 2025)
Counter-ions that a name gives are not always drawn. This is one part of the list. Hit calls seldom repeat between salt and free forms of one compound.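 Kinases were expressed as nanoluciferase fusions in K562 cells and luminescence was read every 4 h between 2 and 18 h as percent of control, DMSO set to 100% and a positive control to 0%. A time point counts as decreased when the signal drops significantly (2 sigma). The hit call is the authors' own, does not follow from the count of time points alone, and its rule is not shown.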

The chains behind the UniProt entries cited, without tags or fusion partners.
UniProt P28482, whole entry: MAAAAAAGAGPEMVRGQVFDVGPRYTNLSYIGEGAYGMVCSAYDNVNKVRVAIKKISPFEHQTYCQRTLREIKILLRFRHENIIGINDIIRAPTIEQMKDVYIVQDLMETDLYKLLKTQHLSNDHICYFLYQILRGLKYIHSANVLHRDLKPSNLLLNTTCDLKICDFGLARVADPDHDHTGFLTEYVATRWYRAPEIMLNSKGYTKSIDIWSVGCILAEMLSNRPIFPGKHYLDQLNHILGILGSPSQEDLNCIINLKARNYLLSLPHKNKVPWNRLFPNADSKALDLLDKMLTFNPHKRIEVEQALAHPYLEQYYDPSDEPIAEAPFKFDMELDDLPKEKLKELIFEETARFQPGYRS

biological target: MAPK1 (UniProt P28482); test: kinase-Nluc reporter destabilization hit call (1 = scored as downregulated) (binary); higher = compound decreases kinase abundance; settings: 2.5 µM; K562; 2-18 h

kinase-Nluc reporter destabilization hit call, inactive:
CN(C)C/C=C/C(=O)Nc1cc2c(Nc3ccc(F)c(Cl)c3)ncnc2cc1O[C@H]1CCOC1 [Afatinib (dimaleate)] 0, Oc1cccc(-c2nc(N3CCOCC3)c3oc4ncccc4c3n2)c1 [PI-103 (Hydrochloride)] 0, c1cc(-c2cnn3cc(-c4ccc(OCCN5CCCCC5)cc4)cnc23)ccn1 [Dorsomorphin] 0, COc1ccc(S(=O)(=O)N(CCO)c2ccccc2CN(C)C/C=C/c2ccc(Cl)cc2)cc1 [KN-93 (phosphate)] 0, Nc1ncnc2c1c(-c1ccc(Oc3ccccc3)cc1)nn2[C@@H]1CCCNC1 [IBT6A (hydrochloride)] 0

same assay, conditions: 10 µM; K562; 2-18 h

kinase-Nluc reporter destabilization hit call, inactive:
COc1cc2nccc(Oc3ccc(NC(=O)C4(C(=O)Nc5ccc(F)cc5)CC4)cc3)c2cc1OC [Cabozantinib (S-malate)] 0, Cn1cc(-c2cnc3ccc4ccc(CS(=O)(=O)NCc5ccccn5)cc4c(=O)c3c2)cn1 [MK-8033 (hydrochloride)] 0, CNC(=O)c1ccc(Nc2ncc(C(F)(F)F)c(NCc3nccnc3N(C)S(C)(=O)=O)n2)cc1 [Defactinib] 0, N#CCNC(=O)c1ccc(-c2ccnc(Nc3ccc(N4CCOCC4)cc3)n2)cc1 [Momelotinib] 0, CC(=O)c1c(C)c2cnc(Nc3ccc(N4CCNCC4)cn3)nc2n(C2CCCC2)c1=O [Palbociclib (isethionate)] 0, Nc1cncc(-c2cn3ccnc3c(Nc3ccc(N4CCN(C5COC5)CC4)cc3)n2)n1 [Lanraplenib (succinate)] 0, C#Cc1cccc(Nc2ncnc3cc4c(cc23)OCCOCCOCCO4)c1 [Icotinib] 0, O=C(O)c1ccc2c(c1)nc(Nc1cccc(Cl)c1)c1ccncc12 [Silmitasertib (sodium salt)] 0, CC(C)Nc1cc(-c2c[nH]c(C(=O)N[C@H](CO)c3cccc(Cl)c3)c2)c(Cl)cn1 [Ulixertinib (hydrochloride)] 0, C=CC(=O)N1CCN(c2ncnc3c(F)c(-c4c(O)cccc4F)c(Cl)cc23)CC1 0, CN(C)C(=O)c1cc2cnc(Nc3ccc(N4CCNCC4)cn3)nc2n1C1CCCC1 [Ribociclib] 0, COc1cc2c(-c3cnn4cc(N5CCC(N6CCN(C)CC6)CC5)cnc34)ccnc2cc1F [ALK2-IN-4 (succinate)] 0, CCN(CC)Cc1ccc(OC)c(-c2cc3c(-c4ccc(C(=O)O)c(C(C)C)c4)ccnc3[nH]2)c1 0, O=C(c1nn(-c2ccc(CN3CCOCC3)cc2)c2c1CS(=O)(=O)c1c(F)cccc1-2)N1CCOCC1 0, CC(C)(C)n1nc(-c2cccc3ccccc23)c2c(N)ncnc21 [1-Naphthyl PP1 (hydrochloride)] 0, CCN(CC)CC(=O)Nc1c(C)cccc1C [Lidocaine (hydrochloride)] 0, Cn1ncc(Cl)c1-c1cc(C(=O)N[C@H](CN)Cc2cccc(F)c2)sc1Cl [Afuresertib (hydrochloride)] 0, COc1cc2c(cc1OC)-c1c(C)c3ccc(OC)c(OC)c3c[n+]1CC2 [Dehydrocorydaline] 0, C[C@H](CCC(=O)NCCS(=O)(=O)O)[C@H]1CC[C@H]2[C@@H]3[C@@H](O)C[C@@H]4C[C@H](O)CC[C@]4(C)[C@H]3CC[C@]12C [Tauroursodeoxycholate (dihydrate)] 0, OCCn1cc(-c2cnc3nnn(Cc4ccc5ncccc5c4)c3n2)cn1 0, C[S+]([O-])c1ccc(-c2nc(-c3ccc(F)cc3)c(-c3ccncc3)[nH]2)cc1 (configuration not stated) 0, CC(C)(C)n1nc(-c2cccc3ccccc23)c2c(N)ncnc21 [1-Naphthyl PP1] 0
